The whole screen tested about 31,000 sequences, of which about 1,400 (4.5%) were called active.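 The calls were made as follows: active = median seed-adjusted z-score above 1 or below -1; inactive = the rest.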 The list shows a part of the results.
Experiment: Novel Modifiers of Survival Motor Neuron (SMN) Protein: Gene Identification via Genome-wide siRNA Screen;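 also: luminescence tracks full-length SMN protein made from the SMN2 reporter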
Conditions: HEK293T SMN2-luciferase reporter, siRNA knockdown, 72 h; actives lie on both sides
In short: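 Luciferase signal, proportional to full-length SMN made from an SMN2 cDNA reporter in stable HEK293T cells, was read 72 h after siRNA reverse transfection. Values were expressed as MAD scores after non-targeting-control normalization and log10 conversion; seed analysis flagged off-targets.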
With GACUUGAACAGUGAACAAATT against RDH14 the median seed-adjusted z-score was inactive: 0.0287. With GGCUUAUGGUUUCAAUGCUTT against SRI the median seed-adjusted z-score was inactive: 0.994. In the case of GCUCUGAAUUCAGUGUUUATT against HTR3E, the median seed-adjusted z-score was inactive: -0.717. In the case of GAGAAGAUCUGGAACUCAUTT against CRAT, the median seed-adjusted z-score was active: -1.42. In the case of CGGUUUCUGAAGACCCAGATT against ZNF358, the median seed-adjusted z-score was inactive: 0.359. In the case of ACAUCGUGUGGAUCGCUGATT against ATP6V0D1, the median seed-adjusted z-score was inactive: -0.242. In the case of GGUUCUAGCUGUCAACAUUTT against AP1G2, the median seed-adjusted z-score was inactive: 0.0657. For CACCUGCAGCUAUUCAUUUTT against ZNF548, the median seed-adjusted z-score was inactive: -0.508. With GGAGAGACGAUAUCGAGGATT against PBRM1 the median seed-adjusted z-score was inactive: -0.118. For UGAACCCUCUGUCUCCUUATT against TIMM23, the median seed-adjusted z-score was inactive: 0.899. With GCGCAUCUAUGAUGACGAUTT against UBA1 the median seed-adjusted z-score was active: 1.34. For GAACUUCACAAGUUCCUCATT against RAB31, the median seed-adjusted z-score was inactive: 0.41. For CCAAUUGAAUUGCUCAGUATT against BCAS2, the median seed-adjusted z-score was inactive: -0.639. With AGUCAUUGAUGGGAUGACATT against PPIC the median seed-adjusted z-score was inactive: 0.0824. With CCAUCAAGAUGUACCCUAUTT against TRIM49 the median seed-adjusted z-score was inactive: 0.0648. For GCUGUUAACUGAACCUCUATT against COQ3, the median seed-adjusted z-score was inactive: 0.426. With CUGUGAGAAUUGUUGCUCUTT against TRIP6 the median seed-adjusted z-score was active: 1.03. In the case of CUACUUAAGUGUGAUAAUATT against OCLN, the median seed-adjusted z-score was inactive: 0.232. In the case of GGUGUGGUCCUGUAUGUCATT against TSSK3, the median seed-adjusted z-score was inactive: -0.381. For CUCUUCAACUUGUACAUGATT against RASA3, the median seed-adjusted z-score was inactive: 0.0056. In the case of GACUAGCAGGGUUCACGAATT against MAGI1, the median seed-adjusted z-score was inactive: 0. With GUCUAUUGCUGCCCAAUGATT against PARD3B the median seed-adjusted z-score was inactive: 0.306. In the case of CCCUAGAACUGGACAGCAATT against FKBP4, the median seed-adjusted z-score was inactive: 0.283. In the case of GCGCAAUAAUGAACGGCAATT against GALNT14, the median seed-adjusted z-score was inactive: 0. With GACUCCCUGCUUUCAAUAATT against SALL2 the median seed-adjusted z-score was inactive: 0.504. For GCACUCCUGGGUCUUCAUATT against TYSND1, the median seed-adjusted z-score was inactive: -0.0298. For GGUAAAGCCGAACUCCUAATT against BAHCC1, the median seed-adjusted z-score was inactive: 0. In the case of AGAUGGAAGCCUUUCUACATT against HYAL3, the median seed-adjusted z-score was inactive: 0. For CAAGCACAAUUUAUACCAATT against KLKB1, the median seed-adjusted z-score was inactive: -0.256. For CAGUUCAAGUGACCAUUGATT against CD300LF, the median seed-adjusted z-score was inactive: -0.264. For CAACAAUAGGACGAAAUAUTT against MTCH2, the median seed-adjusted z-score was inactive: -0.168. For GAAUCCGGUUUGGAAUAUATT against POU3F2, the median seed-adjusted z-score was inactive: -0.179. In the case of CCGCAAAUGUGGGAUGAAATT against UBE2L3, the median seed-adjusted z-score was inactive: 0.378. In the case of GAUGUUACAUAAAACGAUUTT against PTPN20A, the median seed-adjusted z-score was inactive: 0. For GCACGCUGCUCAUUUACAATT against PAPLN, the median seed-adjusted z-score was inactive: -0.186. In the case of CAGAGACGGUACAACCCAATT against SLC25A28, the median seed-adjusted z-score was inactive: -0.459. In the case of GCCUUGACCUGUCCAACAATT against TLR2, the median seed-adjusted z-score was inactive: -0.0278. With GCACUAUUGUCUCACCUGATT against PRPS1 the median seed-adjusted z-score was inactive: 0.034. For GGAAGCAGUUUAUAUCGAUTT against PDE1A, the median seed-adjusted z-score was inactive: 0. With AGGCAGUAGUAGUCACCAATT against PRPS1 the median seed-adjusted z-score was inactive: 0.034. For GCCUAAUAAGGUUCGAAAATT against MYCBP2, the median seed-adjusted z-score was inactive: 0. In the case of GAGCCUUCAUGGUAAGGGATT against ITK, the median seed-adjusted z-score was inactive: -0.0372. For GAAACCAACUCGACCAGCATT against KCNK4, the median seed-adjusted z-score was inactive: -0.446. For GCCCAUUGUUGGUCAACUUTT against NCOA6, the median seed-adjusted z-score was inactive: -0.0197. In the case of UCAACGCGCUCAACAACAATT against AQP5, the median seed-adjusted z-score was inactive: -0.116. In the case of GUAUGAGGUUUAUGAUGCATT against LEPR, the median seed-adjusted z-score was inactive: -0.184. With CCGUAAGACUAAGUAGGAATT against IL1RL1 the median seed-adjusted z-score was inactive: -0.286. With AAACAUUAUUUACCAUUCATT against ZNF439 the median seed-adjusted z-score was inactive: -0.26. With GGUUAGGGCUGAAUGUUUUTT against NOX1 the median seed-adjusted z-score was inactive: -0.221. In the case of CCCGGAUUGUUCCUACUGATT against ALG9, the median seed-adjusted z-score was inactive: -0.267. For GCAUCAGGCAACCAUUUGATT against PTPRCAP, the median seed-adjusted z-score was inactive: 0.372. With GGUAGUUGCUGGAAACCAUTT against MPPE1 the median seed-adjusted z-score was inactive: -0.409. With GCAUGUCAUGGGAUAUGGATT against SLC17A6 the median seed-adjusted z-score was inactive: 0.339. For CAGAUACAGUUCUCCCUUATT against DTX3, the median seed-adjusted z-score was inactive: 0.227.

From PubChem BioAssay AID1347426 (Functional Genomics Laboratory (NCATS/FGL), 2020)
